The data set has as its system 56NEPHREX rats (subtotal 5/6th nephrectomy) fed a high phosphate diet. The experiment in a line: Serum chemistries after 28-day ASARM infusion in the subtotal 5/6th nephrectomy CKD-MBD rat model. It is filed as in vivo. As to the method:
To show ASARM can treat kidney disease, a Wister rat subtotal ⅚th nephrectomy experimental CKD-MBD model (NEPHREX) was used and sham operated rats (SHAM) were used as controls. Male rats (16 week, 250 gm) were fed a high phosphate diet to worsen mineral metabolism defects (2% P, 2000 IU Vit D and 0.8% Ca; Teklad #170496; Envigo envigo.com/teklad). Protocol and rat numbers for osmotic pump (Alzet) infusion of ASARM-peptide, and intravenous injection are determined. Pump infusion with ASARM peptide or vehicle was carried out for 28 days and rats were maintained on a high phosphate diet.
Ten days after 5/6 nephrectomy or sham operations, rats were subjected to the following protocols. There were 6 SHAM operated rates with no ASARM, but with vehicle and high phosphate diet. There were 10 CKD-MBD model rates administered ASARM without a vehicle, but with high phosphate diet. There were 12 CKD-MBD model rates without ASARM, but with vehicle and high phosphate diet. The biological samples of blood and urine were taken from the rats at 5 days post-surgery, blood was taken at 12 days. At day 12, the infusion of ASARM began, with blood and urine being collected at day 24, blood being taken at day 35, and then blood, urine, and necropsy at day 47.
Continuous infusion (28 days) of ASARM peptide and vehicle was undertaken using subcutaneous transplantation of alzet osmotic-pumps (Durect Corporation, Cupertino California). Pump models 2ML4 (28 day model; infusion rate 2.5 uL/hr) were used. The pumps were implanted in rats anesthetized with isoflurane. An ASARM peptide pump infusion rate of 8.4 nmols/kg/hr or 5.1×10^15 molecules/kg/hr) was used for 28 days. This flow rate is based on prior results and consistent with known circulating levels of ASARM-peptides in HYP and wild type rodents. Animals were housed individually, and food intake monitored to assess whether treatments affect appetite. The diet (TEKLAD #170496) was high in non-phytates inorganic phosphate (Pi). Specifically, the high phosphate diet (HPO4) consist of 2% Pi and 2000 U of vitamin D (Teklad, 170496).
Serum Pi, calcium, fractional excretion of phosphate, FGF23, KLOTHO, PTH, 1,25 Vit-D3, osteopontin, immunohistology, MEPE and analyses were carried out as described previously [Zelenchuk, L V, et al., Age dependent regulation of bone-mass and renal function by the MEPE ASARM-motif. Bone, 79:131-142, 2015; Zelenchuk, L, et al., SPR4-peptide Alters Bone Metabolism of Normal and HYP Mice. Bone, 72:23-33, 2015; Zelenchuk, L V, et al., PHEX Mimetic (SPR4-Peptide) Corrects and Improves HYP and Wild Type Mice Energy-Metabolism. PLOS One, 9: e97326, 2014; David, V, et al., ASARM peptides: PHEX-dependent & independent regulation of serum phosphate. […]

[1] abbreviates: 56NEPHREX rats, high phosphate diet, 28 days infusion.

The values below come from patent US20240398895A1 (priority 2020, published 2024).

As to “NH2-RDDSSESSDSGS-(PO3H2)SS-(PO3H2) ES-(PO3H2) DGD-OH (RDDSSESSDSGSSSESDGD; phosphoserines; N-terminal amine, C-terminal acid; Description of Unknown: ASARM sequence; MOD_RES 12 Phosphoserine (Ser(PO3H2)); MOD_RES 14 Phosphoserine (Ser(PO3H2)); MOD_RES 16 Phosphoserine (Ser(PO3H2))) [ASARM peptide, small, phosphorylated peptide (2.2 kDa) from the MEPE ASARM motif]”, under “56NEPHREX rats over the 28 days”, the serum cholesterol entry is reported as “remained unchanged”. Under setting [1], the “serum FGF23 levels” value was “remained high” and the “serum PTH levels” value is “high serum PTH levels”. Moreover, where the note is “all groups after 28 days”, the “serum uric acid levels” value is given as “no significant differences”.
